# Publication PMC7093963
# Sequences of proteins named here, by UniProt entry; tags and fusion partners are left off.
# UniProt Q13838, whole entry: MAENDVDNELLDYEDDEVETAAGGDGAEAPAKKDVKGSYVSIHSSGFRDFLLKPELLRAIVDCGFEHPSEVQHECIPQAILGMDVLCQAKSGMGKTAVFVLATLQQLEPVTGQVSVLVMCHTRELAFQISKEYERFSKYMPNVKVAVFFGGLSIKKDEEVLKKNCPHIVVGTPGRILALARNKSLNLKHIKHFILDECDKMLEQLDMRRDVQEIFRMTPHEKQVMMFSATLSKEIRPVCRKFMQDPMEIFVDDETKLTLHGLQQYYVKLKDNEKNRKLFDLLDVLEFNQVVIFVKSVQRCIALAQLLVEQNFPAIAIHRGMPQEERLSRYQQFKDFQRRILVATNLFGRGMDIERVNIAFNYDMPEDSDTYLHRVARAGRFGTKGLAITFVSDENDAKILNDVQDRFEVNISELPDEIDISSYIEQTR
# The exact form of at least one protein or probe is not confirmed. Weaker means in comparison with the reference protein, sequence or condition of that experiment.
# Target: His-DDX39B (UniProt Q13838)
# Assay: EMSA
# Conditions: 0-300 ng protein, bound less than -1C; EMSA: bacterially expressed DDX39B, 32P probes, non-denaturing 5% acrylamide gel; binding buffer, pH and temperature not given; recombinant protein; protein details: N-terminal His (pET-45b, 5' polyhistidine); label: 32P (T4 PNK)
sequence,measurement,value
TCGAGTTAGATGGGGAATTTCCAGGCAC (double strand) [-1A kB probe],binding result,binds more weakly
